Experimental data reported in publication PMC4742742.
These are yes or no findings as the source states them, for the method shown. For some assays here: In cells and extracts the contact can be indirect. Some results given as binding are weak or reduced against the parent protein; the word gives no strength.

Protein sequences, listed by entry. Tags and fused reporters are not part of them. Lines headed by an entry give the natural chain unless they say otherwise; changes in a name come on top.
UniProt P16109: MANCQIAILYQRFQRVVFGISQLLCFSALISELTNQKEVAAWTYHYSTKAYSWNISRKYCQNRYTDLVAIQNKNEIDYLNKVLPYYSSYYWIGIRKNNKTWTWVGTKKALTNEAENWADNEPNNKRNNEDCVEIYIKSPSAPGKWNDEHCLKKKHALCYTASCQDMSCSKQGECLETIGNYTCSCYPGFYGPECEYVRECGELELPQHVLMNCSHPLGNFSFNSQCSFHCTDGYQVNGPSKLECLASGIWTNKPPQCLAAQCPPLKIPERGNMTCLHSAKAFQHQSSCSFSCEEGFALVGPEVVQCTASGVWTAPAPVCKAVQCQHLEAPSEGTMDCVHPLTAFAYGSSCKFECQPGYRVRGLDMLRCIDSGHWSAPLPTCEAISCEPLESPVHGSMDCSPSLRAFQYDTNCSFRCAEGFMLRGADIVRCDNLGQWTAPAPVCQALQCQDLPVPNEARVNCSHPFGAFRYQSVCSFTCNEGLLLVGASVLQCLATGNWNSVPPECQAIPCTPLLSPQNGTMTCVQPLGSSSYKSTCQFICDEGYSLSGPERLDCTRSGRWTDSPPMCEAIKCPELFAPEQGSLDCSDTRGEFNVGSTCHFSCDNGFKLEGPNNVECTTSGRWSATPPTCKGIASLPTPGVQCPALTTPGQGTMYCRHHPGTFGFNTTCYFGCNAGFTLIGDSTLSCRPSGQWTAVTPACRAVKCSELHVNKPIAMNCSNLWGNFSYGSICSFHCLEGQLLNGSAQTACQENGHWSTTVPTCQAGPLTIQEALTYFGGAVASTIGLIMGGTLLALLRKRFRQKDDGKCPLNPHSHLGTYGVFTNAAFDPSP

How the values were obtained:
[1] = molecular target: Recombinant P-selectin-Fc fusion protein (UniProt P16109); assay: SPR; P-selectin-Fc immobilised on SensiQ COOHV chip by amine coupling; full-length Efb 100 nM-2.8 μM; SensiQ Pioneer FE; Qdat fit; both purified
[2] = molecular target: P-selectin, native, of human platelets (human (endogenous in platelets)) (UniProt P16109); assay: flow cytometry on cells; 1 μM FITC-Efb on washed human platelets (10^7/ml) stimulated with 0.25 unit/ml thrombin, no added fibrinogen; with or without 50 μg/ml P-selectin-Fc; only the binder purified
[3] = molecular target: Recombinant P-selectin-Fc fusion protein (UniProt P16109); assay: co-IP; cell-free: 2 μg/ml P-selectin-Fc and PSGL-1-Fc co-incubated 2 h in PBS plus 1 mM CaCl2; PSGL-1 immunoprecipitated with 10 μg/ml antibody; with or without 5 μM Efb or Efb-N; immunoblot; both purified
[4] = molecular target: N-terminal region of Efb (Efb-N), recombinant residues 29-103, His-tagged (Staphylococcus aureus); assay: pull-down; His-tagged Efb or Efb-N on His-Select HF nickel affinity gel; human platelet lysate (ultrasonication) without added fibrinogen; immunoblot; only the target purified
[5] = molecular target: Extracellular fibrinogen-binding protein (Efb), recombinant full-length Efb (residues 29-165), His-tagged (Staphylococcus aureus); assay: as above
[6] = molecular target: N-terminal region of Efb (Efb-N), recombinant residues 29-103, His-tagged (Staphylococcus aureus); assay: pull-down; His-tagged Efb or Efb-N on His-Select HF nickel affinity gel; human platelet lysate (ultrasonication) with 3 mg/ml added fibrinogen; immunoblot; only the target purified
[7] = molecular target: Extracellular fibrinogen-binding protein (Efb), recombinant full-length Efb (residues 29-165), His-tagged (Staphylococcus aureus); assay: as above
[8] = molecular target: FITC-labeled full-length Efb (residues 29-165) (Staphylococcus aureus); assay: flow cytometry on cells; competition: 50 μg/ml soluble P-selectin-Fc against thrombin-stimulated platelets for 1 μM FITC-Efb; both purified

In the case of “Extracellular fibrinogen-binding protein (Efb), recombinant full-length Efb (residues 29-165), His-tagged (from UniProt A0A0H2XIH9 29-165)”, the binding [1] is reported as “binds”.
With “FITC-labeled full-length Efb (residues 29-165) (from UniProt A0A0H2XIH9 29-165)” the binding [2] was “binds”.
With “N-terminal region of Efb (Efb-N), recombinant residues 29-103, His-tagged (from UniProt A0A0H2XIH9 29-103) (domain or fragment)” the binding [3] was “binds”.
With “P-selectin, native, of human platelets (from UniProt P16109 42-830) (receptor)” the binding [4] was “binds”, the binding [5] was “binds” and the binding [6] was “binds”. For the same substance, the binding [7] was “binds”.
For “Recombinant P-selectin-Fc fusion protein (from UniProt P16109 42-771)”, the binding [8] was “binds”.
